The data set has as its system C57 mice. Kind of data set: Chronic treatment of C57 mice with recombinant lipocalin-2: body weight, food intake, metabolic parameters, ipGTT and ITT. Particulars: recombinant lipocalin-2 5 mg/kg i.p. twice a day, n = 5. The data set is classed as in vivo, mouse. Here is the method: Fasting (16 hr) plasma glucose levels and triglyceride (TG) concentrations were measured by using a Glucose (GO) assay kit (Sigma) and Triglyceride GPO reagent (Pointe Scientific Inc., Lincoln Park, Mich., USA) respectively. Fasting serum insulin concentrations were quantified by using the commercial ELISA kits from Mercodia AB (Uppsala, Sweden). Serum total cholesterol and free fatty acids (FFAs) were analyzed by using the kits from Wako (Richmond, Va., USA) and Roche Diagnostics respectively. TG contents in liver and soleus muscle were analyzed as described elsewhere (Ellis, B. A et al., Am J Physiol Endocrinol Metab. 279:E554-560 (2000); Xu, A., et al. J Clin Invest 112:91-100 (2003)).
For ipGTT, overnight fasted mice (16 hr) were given a glucose load by intraperitoneal injection (1 g glucose/kg body weight). For ITT, mice were starved for 6 h, and then intraperitonally injected with insulin (1 U/kg body weight). Plasma glucose levels were measured at different time points as indicated.
To evaluate the effect of lipocalin-2 on glucose homeostasis and insulin sensitivity, normal C57 mice were treated with murine lipocalin-2 by intraperitoneal injection of the recombinant protein (5 mg protein/kg body weight, twice a day at 12 hr intervals).

B1: Lipocalin-2: recombinant murine lipocalin-2 expressed in BL21 cells, His6 tag and endotoxin removed (protein)
chain: QDSTQNLIPAPSLLTVPLQPDFRSDQFRGRWYVVGLAGNAVQKKTEGSFTMYSTIYELQENNSYNVTSILVRDQDQGCRYWIRTFVPSSRAGQFTLGNMHRYPQVQSYNVQVATTDYNQFAMVFFRKTSENKQYFKITLYGRTKELSPELKERFTRFAKSLGLKDDNIIFSVPTDQCIDN
modifications: left off: small tags and cut ends
notes: recombinant murine lipocalin-2 expressed in BL21 cells, His6 tag and endotoxin removed
As to B1, the “Body weight gains over 4 weeks” value stood at 2.63 ± 0.19 g. Moreover, under “4 weeks”, the “Daily average food intake” value amounted to 1.75 ± 0.20 g.

The values above are taken from US8481032B2, “Lipocalin-2 antibodies for methods of treatment” (The University of Hong Kong, priority 2006, dated 2013).
